This note sets out measurements from doi:10.1101/2025.03.10.641328.

Amino acid sequences for entries named in this document (tags omitted).
UniProt Q9UNN5: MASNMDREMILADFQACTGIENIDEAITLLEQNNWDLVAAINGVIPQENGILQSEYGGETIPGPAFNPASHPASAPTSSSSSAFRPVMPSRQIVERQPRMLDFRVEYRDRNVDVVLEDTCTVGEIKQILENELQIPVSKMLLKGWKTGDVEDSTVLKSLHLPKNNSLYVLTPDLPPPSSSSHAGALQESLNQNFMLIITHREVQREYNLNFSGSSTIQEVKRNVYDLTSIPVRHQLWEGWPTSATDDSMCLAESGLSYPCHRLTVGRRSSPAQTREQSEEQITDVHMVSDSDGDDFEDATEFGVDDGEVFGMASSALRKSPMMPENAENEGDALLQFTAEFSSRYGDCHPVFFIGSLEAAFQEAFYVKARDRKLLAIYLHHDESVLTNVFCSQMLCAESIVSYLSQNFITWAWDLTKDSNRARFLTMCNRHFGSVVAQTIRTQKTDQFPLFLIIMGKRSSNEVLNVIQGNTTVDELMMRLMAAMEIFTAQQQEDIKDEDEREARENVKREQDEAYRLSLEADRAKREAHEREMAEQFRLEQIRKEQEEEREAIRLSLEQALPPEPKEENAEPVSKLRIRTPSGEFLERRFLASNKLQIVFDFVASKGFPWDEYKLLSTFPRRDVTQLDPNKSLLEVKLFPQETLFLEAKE
UniProt P61081: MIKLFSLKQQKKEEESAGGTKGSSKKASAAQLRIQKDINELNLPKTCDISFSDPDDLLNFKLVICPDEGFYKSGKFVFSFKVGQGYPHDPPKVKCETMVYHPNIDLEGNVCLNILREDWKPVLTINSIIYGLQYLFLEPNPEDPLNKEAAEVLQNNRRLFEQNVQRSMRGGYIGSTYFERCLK
UniProt Q9UNE7: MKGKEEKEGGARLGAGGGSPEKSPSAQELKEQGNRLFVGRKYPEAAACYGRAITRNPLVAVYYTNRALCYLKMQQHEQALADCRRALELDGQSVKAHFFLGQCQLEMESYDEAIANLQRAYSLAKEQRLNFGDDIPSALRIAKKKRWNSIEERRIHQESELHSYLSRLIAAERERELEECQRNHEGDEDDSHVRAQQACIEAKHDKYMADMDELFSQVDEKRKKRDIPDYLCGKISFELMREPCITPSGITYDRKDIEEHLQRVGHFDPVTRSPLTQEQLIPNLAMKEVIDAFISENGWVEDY
UniProt O95816: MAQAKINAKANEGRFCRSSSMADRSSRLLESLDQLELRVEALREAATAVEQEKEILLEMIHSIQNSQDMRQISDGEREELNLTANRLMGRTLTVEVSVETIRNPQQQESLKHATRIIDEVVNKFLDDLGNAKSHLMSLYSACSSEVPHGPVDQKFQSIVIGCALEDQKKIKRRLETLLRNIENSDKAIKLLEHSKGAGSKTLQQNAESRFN

Results are given in words; binding and its absence hold for the method and conditions named. Binding seen in cells or lysates may run through a third protein. Here binding means that the protein was enriched with, or labelled near, the bait; the list need not be complete. No binding means not detected with the bait. Tags and fused reporters may be left off the sequences shown.

T1: GFP-tagged gigaxonin Kelch 3 deletion mutant (human) (UniProt Q9H2C0)
T1 sequence: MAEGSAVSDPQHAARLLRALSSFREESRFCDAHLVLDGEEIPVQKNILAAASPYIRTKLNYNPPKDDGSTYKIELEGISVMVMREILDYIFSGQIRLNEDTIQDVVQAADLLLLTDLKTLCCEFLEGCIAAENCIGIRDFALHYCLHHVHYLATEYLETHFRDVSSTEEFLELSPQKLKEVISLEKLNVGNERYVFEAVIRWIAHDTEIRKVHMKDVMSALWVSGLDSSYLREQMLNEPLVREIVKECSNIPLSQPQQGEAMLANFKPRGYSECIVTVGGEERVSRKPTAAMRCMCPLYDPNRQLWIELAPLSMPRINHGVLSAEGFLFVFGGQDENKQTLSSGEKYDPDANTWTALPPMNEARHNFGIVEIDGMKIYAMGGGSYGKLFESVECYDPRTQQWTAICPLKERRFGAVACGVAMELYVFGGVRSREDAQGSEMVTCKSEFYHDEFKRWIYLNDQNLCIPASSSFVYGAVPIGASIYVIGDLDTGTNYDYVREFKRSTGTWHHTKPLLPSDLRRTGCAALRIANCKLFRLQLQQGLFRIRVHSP

B1: VCPIP1 (protein, UniProt Q96JH7 1-1222)
chain: MSQPPPPPPPLPPPPPPPEAPQTPSSLASAAASGGLLKRRDRRILSGSCPDPKCQARLFFPASGSVSIECTECGQRHEQQQLLGVEEVTDPDVVLHNLLRNALLGVTGAPKKNTELVKVMGLSNYHCKLLSPILARYGMDKQTGRAKLLRDMNQGELFDCALLGDRAFLIEPEHVNTVGYGKDRSGSLLYLHDTLEDIKRANKSQECLIPVHVDGDGHCLVHAVSRALVGRELFWHALRENLKQHFQQHLARYQALFHDFIDAAEWEDIINECDPLFVPPEGVPLGLRNIHIFGLANVLHRPIILLDSLSGMRSSGDYSATFLPGLIPAEKCTGKDGHLNKPICIAWSSSGRNHYIPLVGIKGAALPKLPMNLLPKAWGVPQDLIKKYIKLEEDGGCVIGGDRSLQDKYLLRLVAAMEEVFMDKHGIHPSLVADVHQYFYRRTGVIGVQPEEVTAAAKKAVMDNRLHKCLLCGALSELHVPPEWLAPGGKLYNLAKSTHGQLRTDKNYSFPLNNLVCSYDSVKDVLVPDYGMSNLTACNWCHGTSVRKVRGDGSIVYLDGDRTNSRSTGGKCGCGFKHFWDGKEYDNLPEAFPITLEWGGRVVRETVYWFQYESDSSLNSNVYDVAMKLVTKHFPGEFGSEILVQKVVHTILHQTAKKNPDDYTPVNIDGAHAQRVGDVQGQESESQLPTKIILTGQKTKTLHKEELNMSKTERTIQQNITEQASVMQKRKTEKLKQEQKGQPRTVSPSTIRDGPSSAPATPTKAPYSPTTSKEKKIRITTNDGRQSMVTLKSSTTFFELQESIAREFNIPPYLQCIRYGFPPKELMPPQAGMEKEPVPLQHGDRITIEILKSKAEGGQSAAAHSAHTVKQEDIAVTGKLSSKELQEQAEKEMYSLCLLATLMGEDVWSYAKGLPHMFQQGGVFYSIMKKTMGMADGKHCTFPHLPGKTFVYNASEDRLELCVDAAGHFPIGPDVEDLVKEAVSQVRAEATTRSRESSPSHGLLKLGSGGVVKKKSEQLHNVTAFQGKGHSLGTASGNPHLDPRARETSVVRKHNTGTDFSNSSTKTEPSVFTASSSNSELIRIAPGVVTMRDGRQLDPDLVEAQRKKLQEMVSSIQASMDRHLRDQSTEQSPSDLPQRKTEVVSSSAKSGSLQTGLPESFPLTGGTENLNTETTDGCVADALGAAFATRSKAQRGNSVEELEEMDSQDAEMTNTTEPMDHS
B2: NudC domain-containing protein 3 (protein, UniProt Q8IVD9 1-361)
chain: METGAAELYDQALLGILQHVGNVQDFLRVLFGFLYRKTDFYRLLRHPSDRMGFPPGAAQALVLQVFKTFDHMARQDDEKRRQELEEKIRRKEEEEAKTVSAAAAEKEPVPVPVQEIEIDSTTELDGHQEVEKVQPPGPVKEMAHGSQEAEAPGAVAGAAEVPREPPILPRIQEQFQKNPDSYNGAVRENYTWSQDYTDLEVRVPVPKHVVKGKQVSVALSSSSIRVAMLEENGERVLMEGKLTHKINTESSLWSLEPGKCVLVNLSKVGEYWWNAILEGEEPIDIDKINKERSMATVDEEEQAVLDRLTFDYHQKLQGKPQSHELKVHEMLKKGWDAEGSPFRGQRFDPAMFNISPGAVQF
B3: TRIM38 (protein, UniProt O00635 1-465)
chain: MASTTSTKKMMEEATCSICLSLMTNPVSINCGHSYCHLCITDFFKNPSQKQLRQETFCCPQCRAPFHMDSLRPNKQLGSLIEALKETDQEMSCEEHGEQFHLFCEDEGQLICWRCERAPQHKGHTTALVEDVCQGYKEKLQKAVTKLKQLEDRCTEQKLSTAMRITKWKEKVQIQRQKIRSDFKNLQCFLHEEEKSYLWRLEKEEQQTLSRLRDYEAGLGLKSNELKSHILELEEKCQGSAQKLLQNVNDTLSRSWAVKLETSEAVSLELHTMCNVSKLYFDVKKMLRSHQVSVTLDPDTAHHELILSEDRRQVTRGYTQENQDTSSRRFTAFPCVLGCEGFTSGRRYFEVDVGEGTGWDLGVCMENVQRGTGMKQEPQSGFWTLRLCKKKGYVALTSPPTSLHLHEQPLLVGIFLDYEAGVVSFYNGNTGCHIFTFPKASFSDTLRPYFQVYQYSPLFLPPPGD
B4: NME3 (protein, UniProt Q13232 1-169)
chain: MICLVLTIFANLFPAACTGAHERTFLAVKPDGVQRRLVGEIVRRFERKGFKLVALKLVQASEELLREHYAELRERPFYGRLVKYMASGPVVAMVWQGLDVVRTSRALIGATNPADAPPGTIRGDFCIEVGKNLIHGSDSVESARREIALWFRADELLCWEDSAGHWLYE
B5: UBAC2 (protein, UniProt Q8NBM4 36-344)
chain: HCQKLFVYDLHAVKNDFQIWRLICGRIICLDLKDTFCSSLLIYNFRIFERRYGSRKFASFLLGSWVLSALFDFLLIEAMQYFFGITAASNLPSGFLAPVFALFVPFYCSIPRVQVAQILGPLSITNKTLIYILGLQLFTSGSYIWIVAISGLMSGLCYDSKMFQVHQVLCIPSWMAKFFSWTLEPIFSSSEPTSEARIGMGATLDIQRQQRMELLDRQLMFSQFAQGRRQRQQQGGMINWNRLFPPLRQRQNVNYQGGRQSEPAAPPLEVSEEQVARLMEMGFSRGDALEALRASNNDLNVATNFLLQH
B6: UBE2J1 (protein, UniProt Q9Y385 1-318)
chain: METRYNLKSPAVKRLMKEAAELKDPTDHYHAQPLEDNLFEWHFTVRGPPDSDFDGGVYHGRIVLPPEYPMKPPSIILLTANGRFEVGKKICLSISGHHPETWQPSWSIRTALLAIIGFMPTKGEGAIGSLDYTPEERRALAKKSQDFCCEGCGSAMKDVLLPLKSGSDSSQADQEAKELARQISFKAEVNSSGKTISESDLNHSFSLTDLQDDIPTTFQGATASTSYGLQNSSAASFHQPTQPVAKNTSMSPRQRRAQQQSQRRLSTSPDVIQGHQPRDNHTDHGGSAVLIVILTLALAALIFRRIYLANEYIFDFEL

The target in this test is T1, GFP-tagged gigaxonin Kelch 3 deletion mutant (human). Nature of the test: affinity purification with mass spectrometry; GFP-tagged gigaxonin captured on TurboGFP-Trap magnetic agarose beads from Triton X-100 soluble lysate of transfected cells, overnight at 4°C; on-bead tryptic digestion, LC-MS/MS, MaxQuant and Perseus.
As to FAF1 (from UniProt Q9UNN5 1-650), the binding result was “binds”. For the molecule UBE2M (from UniProt P61081 1-183), the binding entry is “binds”. As for STUB1 (from UniProt Q9UNE7 1-303), the binding result is “binds”. BAG2 (from UniProt O95816 1-211): the binding result is “binds”.

Consider B1, for which the binding entry is listed as “binds”.

B2: the binding result is reported as “no binding”. On to B3, for which the binding entry was “binds”.

For the molecule B4, the binding entry is “binds”. For B5 the value was “binds”; for B6, “binds”.
